Values quoted from earlier work, collected in patent publication US20260109672A1, “SARS-COV-2 MPRO INHIBITORS AND USES THEREOF” (NXERA PHARMA UK LIMITED, priority 2022, published 2026).
At least one structure is not confirmed: it was looked up by name or label, or the drawing left a doubt.

Legend:
[1] = test system: Mpro proteases from SARS, MERS, HKU1, HKU4, HKU5, NL63, FIPV and IBV; conditions: cited from earlier work
SARS-CoV-2 infection = conditions: approved in selected countries for limited use; Zhou et al.; cited from earlier work

SMILES | Inhibition of Mpro proteases from other coronaviruses [1] | Effect in treatment of SARS-CoV-2 infection (SARS-CoV-2 infection)
CCC[C@H](NC(=O)[C@@H]1[C@H]2CCC[C@H]2CN1C(=O)[C@@H](NC(=O)[C@@H](NC(=O)c1cnccn1)C1CCCCC1)C(C)(C)C)C(=O)C(=O)NC1CC1 [telaprevir] | inhibitory activity shown at SARS, HKU4, HKU5, NL63 and IBV | 
CC(C)(C)NC(=O)N[C@H](C(=O)N1C[C@H]2[C@@H]([C@H]1C(=O)NC(CC1CCC1)C(=O)C(N)=O)C2(C)C)C(C)(C)C (stereo partly drawn) [boceprevir] | able to inhibit all coronavirus proteases tested except NL63 | 
CCC(CC)COC(=O)[C@H](C)N[P@](=O)(OC[C@H]1O[C@@](C#N)(c2ccc3c(N)ncnn23)[C@H](O)[C@@H]1O)Oc1ccccc1 [remdesivir] |  | modest effects
